Results on 24 targets are retold here after the supplement of paper PMC12819154, “High-throughput peptide-centric local stability assay extends protein–ligand identification to membrane proteins, tissues and bacteria” (Nature Structural & Molecular Biology, 2025).

The chains behind the UniProt entries cited, without tags or fusion partners. Where a name states a change or a piece, a line headed by the entry shows the natural chain unless it says otherwise.
UniProt Q9CQK7: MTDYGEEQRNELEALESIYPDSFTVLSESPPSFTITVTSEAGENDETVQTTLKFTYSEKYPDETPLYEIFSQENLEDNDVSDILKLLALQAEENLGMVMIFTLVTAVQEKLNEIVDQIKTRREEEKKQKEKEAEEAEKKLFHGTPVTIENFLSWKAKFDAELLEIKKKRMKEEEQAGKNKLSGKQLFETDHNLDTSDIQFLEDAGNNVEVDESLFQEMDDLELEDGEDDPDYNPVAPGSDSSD
UniProt Q9CR13: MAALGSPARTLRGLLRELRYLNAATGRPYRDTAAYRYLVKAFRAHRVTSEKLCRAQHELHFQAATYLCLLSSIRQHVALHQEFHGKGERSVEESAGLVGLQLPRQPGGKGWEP
UniProt Q99PN3: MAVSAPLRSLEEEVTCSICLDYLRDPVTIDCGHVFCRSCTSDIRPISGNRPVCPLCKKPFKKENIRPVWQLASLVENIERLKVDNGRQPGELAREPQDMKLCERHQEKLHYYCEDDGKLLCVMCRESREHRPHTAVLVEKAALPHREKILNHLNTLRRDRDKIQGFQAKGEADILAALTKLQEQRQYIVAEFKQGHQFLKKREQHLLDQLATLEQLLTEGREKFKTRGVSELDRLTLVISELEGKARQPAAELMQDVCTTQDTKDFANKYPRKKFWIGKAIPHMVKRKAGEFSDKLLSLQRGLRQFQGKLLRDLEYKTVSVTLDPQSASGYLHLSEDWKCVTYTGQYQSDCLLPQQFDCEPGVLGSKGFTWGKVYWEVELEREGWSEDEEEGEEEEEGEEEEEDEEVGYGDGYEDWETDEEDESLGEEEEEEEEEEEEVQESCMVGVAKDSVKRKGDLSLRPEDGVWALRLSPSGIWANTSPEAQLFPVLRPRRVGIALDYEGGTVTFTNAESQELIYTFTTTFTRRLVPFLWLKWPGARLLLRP
UniProt Q99P58: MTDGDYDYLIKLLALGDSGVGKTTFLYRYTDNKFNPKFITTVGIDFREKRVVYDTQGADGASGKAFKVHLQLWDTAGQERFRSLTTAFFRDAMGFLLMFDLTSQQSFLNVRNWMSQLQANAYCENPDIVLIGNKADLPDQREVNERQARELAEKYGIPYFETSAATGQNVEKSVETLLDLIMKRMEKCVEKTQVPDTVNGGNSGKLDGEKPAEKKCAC
UniProt Q9CQT2: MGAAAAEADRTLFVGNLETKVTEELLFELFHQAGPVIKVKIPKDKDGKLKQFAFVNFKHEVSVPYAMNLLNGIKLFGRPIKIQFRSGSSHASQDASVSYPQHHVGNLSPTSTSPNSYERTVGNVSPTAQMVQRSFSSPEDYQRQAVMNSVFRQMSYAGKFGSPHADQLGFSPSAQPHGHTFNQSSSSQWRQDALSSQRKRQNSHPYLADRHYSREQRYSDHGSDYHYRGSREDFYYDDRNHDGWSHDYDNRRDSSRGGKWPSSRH
UniProt Q99PE8: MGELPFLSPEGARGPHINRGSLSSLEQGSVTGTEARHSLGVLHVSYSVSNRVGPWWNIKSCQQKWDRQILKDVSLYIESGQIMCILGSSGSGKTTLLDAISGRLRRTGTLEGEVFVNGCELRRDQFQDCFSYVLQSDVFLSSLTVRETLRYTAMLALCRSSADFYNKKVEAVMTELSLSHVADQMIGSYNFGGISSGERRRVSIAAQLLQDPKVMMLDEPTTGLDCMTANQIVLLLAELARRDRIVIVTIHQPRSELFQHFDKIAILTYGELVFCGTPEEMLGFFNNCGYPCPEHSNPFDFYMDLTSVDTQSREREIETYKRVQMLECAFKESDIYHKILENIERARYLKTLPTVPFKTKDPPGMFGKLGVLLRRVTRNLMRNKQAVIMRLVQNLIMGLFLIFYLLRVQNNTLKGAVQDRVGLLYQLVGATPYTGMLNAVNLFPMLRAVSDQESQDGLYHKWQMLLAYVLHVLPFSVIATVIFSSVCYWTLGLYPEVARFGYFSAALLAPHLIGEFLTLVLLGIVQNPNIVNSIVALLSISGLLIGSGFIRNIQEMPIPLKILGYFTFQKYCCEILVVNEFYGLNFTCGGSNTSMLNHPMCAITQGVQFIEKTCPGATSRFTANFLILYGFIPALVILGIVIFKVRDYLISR
UniProt Q99P51: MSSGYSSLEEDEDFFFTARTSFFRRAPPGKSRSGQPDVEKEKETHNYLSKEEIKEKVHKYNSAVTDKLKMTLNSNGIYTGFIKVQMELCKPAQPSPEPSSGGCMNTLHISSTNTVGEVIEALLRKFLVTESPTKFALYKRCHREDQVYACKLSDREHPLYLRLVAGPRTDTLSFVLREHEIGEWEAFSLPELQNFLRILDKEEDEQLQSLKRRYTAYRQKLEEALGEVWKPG
UniProt Q99LM2: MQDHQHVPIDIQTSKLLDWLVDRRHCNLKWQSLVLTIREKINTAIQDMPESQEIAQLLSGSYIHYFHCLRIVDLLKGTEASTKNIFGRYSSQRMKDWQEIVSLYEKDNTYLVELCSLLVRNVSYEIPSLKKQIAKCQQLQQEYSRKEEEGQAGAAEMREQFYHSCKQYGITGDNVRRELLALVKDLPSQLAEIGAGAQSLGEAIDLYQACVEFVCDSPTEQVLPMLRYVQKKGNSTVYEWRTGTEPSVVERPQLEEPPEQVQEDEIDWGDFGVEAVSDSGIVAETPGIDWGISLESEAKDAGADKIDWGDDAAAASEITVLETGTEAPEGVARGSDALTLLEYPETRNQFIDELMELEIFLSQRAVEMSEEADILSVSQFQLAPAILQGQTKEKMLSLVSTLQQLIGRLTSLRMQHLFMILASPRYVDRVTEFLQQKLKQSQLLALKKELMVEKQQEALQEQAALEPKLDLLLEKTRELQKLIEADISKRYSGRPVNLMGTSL
UniProt Q9CQD4: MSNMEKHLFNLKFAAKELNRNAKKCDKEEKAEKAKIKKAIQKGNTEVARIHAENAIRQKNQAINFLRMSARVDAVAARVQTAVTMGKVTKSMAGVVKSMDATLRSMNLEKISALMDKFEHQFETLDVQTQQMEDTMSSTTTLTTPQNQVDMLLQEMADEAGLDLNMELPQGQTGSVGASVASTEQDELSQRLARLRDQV
UniProt Q99LQ1: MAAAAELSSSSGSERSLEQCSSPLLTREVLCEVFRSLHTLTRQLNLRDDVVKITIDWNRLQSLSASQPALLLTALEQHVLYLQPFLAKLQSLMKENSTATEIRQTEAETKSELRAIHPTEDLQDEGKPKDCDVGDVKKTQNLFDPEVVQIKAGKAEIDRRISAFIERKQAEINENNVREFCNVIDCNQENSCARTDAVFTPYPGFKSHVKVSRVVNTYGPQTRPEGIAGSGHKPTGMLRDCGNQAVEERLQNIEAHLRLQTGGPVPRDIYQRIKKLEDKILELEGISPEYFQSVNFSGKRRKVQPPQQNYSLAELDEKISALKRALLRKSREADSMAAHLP
UniProt Q99MB7: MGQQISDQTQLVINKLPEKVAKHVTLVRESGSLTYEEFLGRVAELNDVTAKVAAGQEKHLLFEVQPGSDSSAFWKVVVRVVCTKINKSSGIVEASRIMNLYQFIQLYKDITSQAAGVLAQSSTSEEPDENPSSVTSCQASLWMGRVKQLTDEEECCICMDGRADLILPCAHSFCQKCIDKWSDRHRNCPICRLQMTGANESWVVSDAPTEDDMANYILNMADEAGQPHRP
UniProt Q99PP6: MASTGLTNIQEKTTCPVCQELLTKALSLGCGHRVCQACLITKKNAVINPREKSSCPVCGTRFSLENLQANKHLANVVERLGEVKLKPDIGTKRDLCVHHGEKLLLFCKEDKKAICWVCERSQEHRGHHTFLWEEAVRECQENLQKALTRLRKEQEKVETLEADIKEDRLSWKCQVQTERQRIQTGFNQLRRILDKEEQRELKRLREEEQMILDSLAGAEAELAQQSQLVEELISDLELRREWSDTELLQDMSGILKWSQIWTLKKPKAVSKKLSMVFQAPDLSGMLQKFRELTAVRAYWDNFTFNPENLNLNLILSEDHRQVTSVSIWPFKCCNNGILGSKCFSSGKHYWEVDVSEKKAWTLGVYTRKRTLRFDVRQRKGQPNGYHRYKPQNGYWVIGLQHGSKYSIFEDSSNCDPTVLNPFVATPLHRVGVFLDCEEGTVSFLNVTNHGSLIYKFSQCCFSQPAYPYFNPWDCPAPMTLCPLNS
UniProt Q99PI5: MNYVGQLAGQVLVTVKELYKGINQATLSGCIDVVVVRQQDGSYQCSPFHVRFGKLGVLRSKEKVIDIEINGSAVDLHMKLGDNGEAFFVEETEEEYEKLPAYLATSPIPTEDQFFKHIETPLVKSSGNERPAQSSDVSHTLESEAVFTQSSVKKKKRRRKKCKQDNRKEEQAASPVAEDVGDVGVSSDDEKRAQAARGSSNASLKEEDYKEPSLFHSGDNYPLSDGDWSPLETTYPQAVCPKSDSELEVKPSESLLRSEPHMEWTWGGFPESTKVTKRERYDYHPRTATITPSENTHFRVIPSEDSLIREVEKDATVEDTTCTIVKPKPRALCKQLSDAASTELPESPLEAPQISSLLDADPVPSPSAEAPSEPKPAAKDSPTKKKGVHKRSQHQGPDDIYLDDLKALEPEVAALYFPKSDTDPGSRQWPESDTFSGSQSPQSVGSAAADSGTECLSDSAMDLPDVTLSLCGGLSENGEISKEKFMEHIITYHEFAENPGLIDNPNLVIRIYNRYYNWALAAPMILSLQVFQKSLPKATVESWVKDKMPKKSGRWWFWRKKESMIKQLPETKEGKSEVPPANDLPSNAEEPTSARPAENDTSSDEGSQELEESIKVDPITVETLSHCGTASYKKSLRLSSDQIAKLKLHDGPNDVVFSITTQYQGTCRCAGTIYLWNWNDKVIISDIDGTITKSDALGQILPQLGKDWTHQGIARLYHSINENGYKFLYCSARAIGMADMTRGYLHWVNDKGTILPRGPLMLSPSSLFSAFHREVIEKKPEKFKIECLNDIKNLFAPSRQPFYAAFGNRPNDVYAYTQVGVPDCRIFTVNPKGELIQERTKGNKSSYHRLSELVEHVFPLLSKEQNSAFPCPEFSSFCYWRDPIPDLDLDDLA
UniProt Q9CR26: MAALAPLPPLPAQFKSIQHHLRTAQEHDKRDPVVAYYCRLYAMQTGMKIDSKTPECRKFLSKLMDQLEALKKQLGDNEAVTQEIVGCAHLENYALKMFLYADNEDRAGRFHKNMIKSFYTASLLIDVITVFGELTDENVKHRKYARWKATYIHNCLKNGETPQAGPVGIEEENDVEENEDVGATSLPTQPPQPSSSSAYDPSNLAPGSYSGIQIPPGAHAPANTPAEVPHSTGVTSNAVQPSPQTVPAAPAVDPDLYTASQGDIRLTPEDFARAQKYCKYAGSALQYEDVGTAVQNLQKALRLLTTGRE
UniProt Q9CQW9, whole entry: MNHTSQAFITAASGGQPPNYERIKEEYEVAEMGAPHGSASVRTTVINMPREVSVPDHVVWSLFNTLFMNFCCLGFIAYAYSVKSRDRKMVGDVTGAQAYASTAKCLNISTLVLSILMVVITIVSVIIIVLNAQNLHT
UniProt Q99MZ7: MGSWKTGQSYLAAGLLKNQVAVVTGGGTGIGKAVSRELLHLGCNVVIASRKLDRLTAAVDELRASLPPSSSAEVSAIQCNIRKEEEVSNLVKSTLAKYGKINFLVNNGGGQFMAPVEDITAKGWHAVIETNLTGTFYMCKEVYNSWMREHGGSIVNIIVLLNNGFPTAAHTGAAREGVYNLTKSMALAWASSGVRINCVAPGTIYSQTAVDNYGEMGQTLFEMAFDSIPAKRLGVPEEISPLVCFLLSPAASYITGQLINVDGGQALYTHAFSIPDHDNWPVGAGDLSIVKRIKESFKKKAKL
UniProt Q9CQA3: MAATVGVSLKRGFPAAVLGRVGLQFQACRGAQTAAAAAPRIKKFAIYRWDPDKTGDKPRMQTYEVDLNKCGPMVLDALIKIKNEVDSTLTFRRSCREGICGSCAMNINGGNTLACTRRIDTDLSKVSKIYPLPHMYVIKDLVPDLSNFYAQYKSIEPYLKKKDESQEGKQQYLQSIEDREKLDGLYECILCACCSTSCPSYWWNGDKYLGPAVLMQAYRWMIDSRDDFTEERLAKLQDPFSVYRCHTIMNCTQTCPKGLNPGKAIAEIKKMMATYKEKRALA
UniProt Q9CR24: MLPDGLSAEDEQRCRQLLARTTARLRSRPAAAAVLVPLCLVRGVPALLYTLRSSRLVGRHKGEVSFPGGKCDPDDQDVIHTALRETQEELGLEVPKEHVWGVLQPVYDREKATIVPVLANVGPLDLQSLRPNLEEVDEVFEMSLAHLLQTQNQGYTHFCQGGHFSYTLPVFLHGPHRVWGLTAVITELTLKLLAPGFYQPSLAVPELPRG
UniProt Q9CR08: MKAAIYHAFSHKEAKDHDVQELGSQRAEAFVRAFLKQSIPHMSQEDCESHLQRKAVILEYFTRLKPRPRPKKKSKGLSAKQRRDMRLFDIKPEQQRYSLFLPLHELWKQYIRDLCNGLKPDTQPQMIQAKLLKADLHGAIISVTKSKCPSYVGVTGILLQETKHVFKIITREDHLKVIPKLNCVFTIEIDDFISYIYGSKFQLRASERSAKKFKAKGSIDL
UniProt Q9CR27: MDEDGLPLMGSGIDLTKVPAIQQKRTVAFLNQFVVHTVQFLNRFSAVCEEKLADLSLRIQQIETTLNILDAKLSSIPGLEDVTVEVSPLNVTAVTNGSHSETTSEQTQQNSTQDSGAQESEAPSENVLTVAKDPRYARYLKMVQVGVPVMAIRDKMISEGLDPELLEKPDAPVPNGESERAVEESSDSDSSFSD

Some of the results follow. Most values lie at the level of the controls, where differences are scatter.

Compound in this assay: CN[C@@H]1C[C@H]2O[C@@](C)([C@@H]1OC)n1c3ccccc3c3c4c(c5c6ccccc6n2c5c31)C(=O)NC4 [staurosporine]
Briefly: log2 fold change of tryptic peptide abundance, ligand vs vehicle (limited proteolysis) (log2 ratio); higher = more trypsin-susceptible (destabilized). The note with it: ligand concentration: 20 uM; sample: mouse liver crude lysate; replicate design: treated separately.
Regarding “UniProt Q9CQK7 (peptide sequence: MKEEEQAGKNK, peptide start residue: 170)”, the log2 fold change is -0.215.

Regarding “UniProt Q9CR13 (peptide sequence: QHVALHQEFHGK, peptide start residue: 75)”, the log2 fold change is 0.912.

With “UniProt Q99PN3 (peptide sequence: EHRPHTAVLVEK, peptide start residue: 129)”, the log2 fold change was -0.376.

For “UniProt Q99P58 (peptide sequence: SLTTAFFR, peptide start residue: 83)”, the log2 fold change turned out to be 0.139.

Consider “UniProt Q9CQT2 (peptide sequence: HEVSVPYAMNLLNGIK, peptide start residue: 59)”, for which the log2 fold change turned out to be 0.548.

Consider “UniProt Q9CPS7 (peptide sequence: FTIENVTR, peptide start residue: 188)”, for which the log2 fold change was found to be 0.0855.

Turning to “UniProt Q99PE8 (peptide sequence: TTLLDAISGR, peptide start residue: 94)”, the log2 fold change is -0.193.

With “UniProt Q9CQ39 (peptide sequence: SVTHSHSLPDS, peptide start residue: 134)”, the log2 fold change was 0.000266.

For the target “UniProt Q99P51 (peptide sequence: YNSAVTDKLK, peptide start residue: 60)”, the log2 fold change came to 0.405.

Regarding “UniProt Q99LM2 (peptide sequence: WQSLVLTIR, peptide start residue: 30)”, the log2 fold change is 0.487.

Turning to “UniProt Q9CQD4 (peptide sequence: QKNQAINFLR, peptide start residue: 58)”, the log2 fold change was found to be 0.321.

Turning to “UniProt Q99LQ1 (peptide sequence: LQNIEAHLR, peptide start residue: 250)”, the log2 fold change worked out at 0.794.

For the target “UniProt Q99MB7 (peptide sequence: VAELNDVTAK, peptide start residue: 42)”, the log2 fold change was determined as 0.228.

As for “UniProt Q99MY8 (peptide sequence: SQFTAESTHLNVGHR, peptide start residue: 601)”, the log2 fold change is -0.48.

On to “UniProt Q99PP6 (peptide sequence: VCQACLITKK, peptide start residue: 34)”, for which the log2 fold change was 0.123.

For the target “UniProt Q99PI5 (peptide sequence: SQHQGPDDIYLDDLK, peptide start residue: 392)”, the log2 fold change was -0.117.

On to “UniProt Q99MD6 (peptide sequence: TFQAHQNGLLQK, peptide start residue: 145)”, for which the log2 fold change is 0.266.

As for “UniProt Q9CR26 (peptide sequence: MFLYADNEDR, peptide start residue: 97)”, the log2 fold change is -0.259.

Consider “UniProt Q9CQW9 (peptide sequence: IKEEYEVAEMGAPHGSASVR, peptide start residue: 23)”, for which the log2 fold change was -0.0892.

“UniProt Q99MZ7 (peptide sequence: KEEEVSNLVK, peptide start residue: 83)”: the log2 fold change was -0.551.

For the target “UniProt Q9CQA3 (peptide sequence: KMMATYK, peptide start residue: 270)”, the log2 fold change was -0.278.

Consider “UniProt Q9CR24 (peptide sequence: EHVWGVLQPVYDREK, peptide start residue: 97)”, for which the log2 fold change turned out to be 0.169.

With “UniProt Q9CR08 (peptide sequence: DHDVQELGSQR, peptide start residue: 16)”, the log2 fold change was found to be 0.296.

Regarding “UniProt Q9CR27 (peptide sequence: MVQVGVPVMAIR, peptide start residue: 142)”, the log2 fold change is -0.0367.
